In paper PMC12827327 one finds binding data, which are given here for 1 molecule.

These are yes or no findings as the source states them, for the method shown.

The assay concerns the target human SH3BGRL (human), O75368. Nature of the assay: AUC; sedimentation velocity of each SH3BGRL isoform alone; 50,000 rpm, 20 °C; 25 mM HEPES pH 7.4, 50 mM NaCl, 0.5 mM TCEP; continuous c(s) model (SEDFIT); both purified. Particulars: remark: other sources report otherwise.

B1: human SH3BGRL, O75368 1-114 (protein)
chain: MVIRVYIASSSGSTAIKKKQQDVLGFLEANKIGFEEKDIAANEENRKWMRENVPENSRPATGYPLPPQIFNESQYRGDYDAFFEARENNAVYAFLGLTAPPGSKEAEVQAKQQA
For the molecule B1, the binding entry is “no binding”.
